The target in assay [1] is XPO1 (CRM1) (human (endogenous in 293T and HeLa)) (UniProt O14980). The assay is described as follows: co-IP; antibodies against XPO1, blot for PHAX (Supplementary Figure S1b); cell line not stated.
For assay [2], the target named is T1, Regulator of Telomere ELongation helicase 1 (RTEL1), endogenous in HeLa cells (human (endogenous in HeLa)) (UniProt Q9NZ71).
T1 sequence: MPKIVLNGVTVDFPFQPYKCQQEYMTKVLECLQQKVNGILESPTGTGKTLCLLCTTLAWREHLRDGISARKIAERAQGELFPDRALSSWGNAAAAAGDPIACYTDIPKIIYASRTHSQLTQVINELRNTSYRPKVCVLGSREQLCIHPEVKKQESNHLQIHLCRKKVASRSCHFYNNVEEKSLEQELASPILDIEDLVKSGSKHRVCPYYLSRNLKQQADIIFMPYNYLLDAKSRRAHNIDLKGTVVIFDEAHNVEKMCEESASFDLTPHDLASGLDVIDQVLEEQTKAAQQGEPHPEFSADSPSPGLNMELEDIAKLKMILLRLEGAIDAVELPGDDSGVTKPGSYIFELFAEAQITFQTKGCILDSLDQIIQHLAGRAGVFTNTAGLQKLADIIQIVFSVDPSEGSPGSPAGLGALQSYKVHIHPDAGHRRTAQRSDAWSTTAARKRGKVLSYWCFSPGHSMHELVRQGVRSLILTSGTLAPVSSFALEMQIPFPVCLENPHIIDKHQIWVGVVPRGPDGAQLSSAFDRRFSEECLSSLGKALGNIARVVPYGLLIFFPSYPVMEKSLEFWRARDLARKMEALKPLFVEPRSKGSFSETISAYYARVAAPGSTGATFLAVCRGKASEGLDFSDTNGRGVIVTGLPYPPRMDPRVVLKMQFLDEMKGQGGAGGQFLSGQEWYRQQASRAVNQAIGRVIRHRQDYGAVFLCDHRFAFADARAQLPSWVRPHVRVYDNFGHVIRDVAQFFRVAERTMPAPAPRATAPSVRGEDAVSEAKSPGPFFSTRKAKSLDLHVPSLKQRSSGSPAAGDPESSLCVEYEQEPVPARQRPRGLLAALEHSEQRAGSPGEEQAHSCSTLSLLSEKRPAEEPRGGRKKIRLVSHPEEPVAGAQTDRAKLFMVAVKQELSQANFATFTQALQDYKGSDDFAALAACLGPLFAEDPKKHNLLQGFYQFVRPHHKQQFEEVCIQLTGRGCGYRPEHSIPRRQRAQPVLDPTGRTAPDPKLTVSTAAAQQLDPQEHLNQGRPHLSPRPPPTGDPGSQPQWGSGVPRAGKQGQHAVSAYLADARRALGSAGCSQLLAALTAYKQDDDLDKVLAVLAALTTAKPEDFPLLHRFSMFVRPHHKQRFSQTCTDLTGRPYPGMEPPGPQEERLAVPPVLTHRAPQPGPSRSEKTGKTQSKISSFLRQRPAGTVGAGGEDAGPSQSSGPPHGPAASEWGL
Nature of the assay: co-IP; anti-RTEL1 antibodies, soluble lysate of unperturbed HeLa cells (endogenous levels of all proteins); NP40 lysis buffer (50 mM Tris-HCl pH 6.8, 150 mM NaCl, 1% NP-40); western blot. (In general: A western blot detects proteins with antibodies after separation by electrophoresis.)

Chains of the proteins cited; added tags and fusions are not shown.
UniProt O14980: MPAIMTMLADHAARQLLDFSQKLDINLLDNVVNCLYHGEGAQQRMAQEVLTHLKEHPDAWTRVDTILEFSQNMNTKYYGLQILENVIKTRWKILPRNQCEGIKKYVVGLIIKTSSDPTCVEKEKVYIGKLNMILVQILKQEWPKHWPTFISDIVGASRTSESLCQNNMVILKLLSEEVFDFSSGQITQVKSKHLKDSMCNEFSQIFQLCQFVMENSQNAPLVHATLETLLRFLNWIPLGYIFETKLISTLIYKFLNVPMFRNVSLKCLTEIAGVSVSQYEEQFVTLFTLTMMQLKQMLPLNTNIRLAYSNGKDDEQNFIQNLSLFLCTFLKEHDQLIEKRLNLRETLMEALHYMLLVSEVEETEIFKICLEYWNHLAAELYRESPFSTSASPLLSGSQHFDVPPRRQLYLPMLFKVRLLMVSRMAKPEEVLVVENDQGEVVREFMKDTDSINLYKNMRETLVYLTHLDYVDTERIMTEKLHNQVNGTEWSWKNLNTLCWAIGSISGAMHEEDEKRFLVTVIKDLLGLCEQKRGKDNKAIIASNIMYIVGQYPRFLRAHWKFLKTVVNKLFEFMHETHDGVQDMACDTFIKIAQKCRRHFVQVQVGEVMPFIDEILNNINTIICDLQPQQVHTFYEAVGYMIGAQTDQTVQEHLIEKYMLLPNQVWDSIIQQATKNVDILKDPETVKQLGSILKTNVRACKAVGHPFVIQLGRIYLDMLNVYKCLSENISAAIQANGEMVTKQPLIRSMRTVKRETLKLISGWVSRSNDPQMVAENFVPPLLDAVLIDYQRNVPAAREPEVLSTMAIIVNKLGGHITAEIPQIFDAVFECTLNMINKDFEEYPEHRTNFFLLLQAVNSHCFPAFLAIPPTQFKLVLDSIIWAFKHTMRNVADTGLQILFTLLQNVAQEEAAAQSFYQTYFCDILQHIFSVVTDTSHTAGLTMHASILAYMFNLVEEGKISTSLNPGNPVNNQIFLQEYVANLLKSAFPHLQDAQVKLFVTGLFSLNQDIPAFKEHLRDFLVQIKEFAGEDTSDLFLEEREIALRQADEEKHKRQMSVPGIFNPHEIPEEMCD
UniProt Q9HAV4: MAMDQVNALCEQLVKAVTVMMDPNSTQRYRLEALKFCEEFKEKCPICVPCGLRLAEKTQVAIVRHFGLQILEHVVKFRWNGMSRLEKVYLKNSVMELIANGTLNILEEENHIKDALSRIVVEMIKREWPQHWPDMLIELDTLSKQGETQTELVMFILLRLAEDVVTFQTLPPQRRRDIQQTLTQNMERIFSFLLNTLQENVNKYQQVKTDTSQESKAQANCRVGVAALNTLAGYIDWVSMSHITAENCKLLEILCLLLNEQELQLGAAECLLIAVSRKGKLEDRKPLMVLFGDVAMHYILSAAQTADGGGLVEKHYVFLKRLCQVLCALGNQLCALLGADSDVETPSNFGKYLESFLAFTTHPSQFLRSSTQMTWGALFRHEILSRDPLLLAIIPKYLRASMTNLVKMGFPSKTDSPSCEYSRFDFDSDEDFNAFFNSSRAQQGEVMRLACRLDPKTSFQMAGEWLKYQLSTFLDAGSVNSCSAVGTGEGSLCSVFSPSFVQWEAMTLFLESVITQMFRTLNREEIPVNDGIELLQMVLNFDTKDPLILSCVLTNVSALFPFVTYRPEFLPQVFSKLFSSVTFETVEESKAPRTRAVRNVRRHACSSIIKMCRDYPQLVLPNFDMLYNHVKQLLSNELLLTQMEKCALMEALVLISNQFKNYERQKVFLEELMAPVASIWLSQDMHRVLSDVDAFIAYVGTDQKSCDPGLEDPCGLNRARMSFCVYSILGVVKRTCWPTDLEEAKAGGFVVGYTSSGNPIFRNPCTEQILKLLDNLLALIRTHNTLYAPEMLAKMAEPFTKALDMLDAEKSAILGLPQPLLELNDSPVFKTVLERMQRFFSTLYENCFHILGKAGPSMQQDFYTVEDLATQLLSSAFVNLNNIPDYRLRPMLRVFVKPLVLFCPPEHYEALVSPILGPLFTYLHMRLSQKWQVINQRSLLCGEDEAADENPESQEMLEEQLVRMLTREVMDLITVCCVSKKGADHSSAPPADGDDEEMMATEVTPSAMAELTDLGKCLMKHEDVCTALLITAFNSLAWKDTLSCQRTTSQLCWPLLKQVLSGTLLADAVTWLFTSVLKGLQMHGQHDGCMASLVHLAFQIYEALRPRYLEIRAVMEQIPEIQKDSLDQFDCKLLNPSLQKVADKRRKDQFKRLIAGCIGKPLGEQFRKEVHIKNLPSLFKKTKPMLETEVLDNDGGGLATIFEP
UniProt Q9H814: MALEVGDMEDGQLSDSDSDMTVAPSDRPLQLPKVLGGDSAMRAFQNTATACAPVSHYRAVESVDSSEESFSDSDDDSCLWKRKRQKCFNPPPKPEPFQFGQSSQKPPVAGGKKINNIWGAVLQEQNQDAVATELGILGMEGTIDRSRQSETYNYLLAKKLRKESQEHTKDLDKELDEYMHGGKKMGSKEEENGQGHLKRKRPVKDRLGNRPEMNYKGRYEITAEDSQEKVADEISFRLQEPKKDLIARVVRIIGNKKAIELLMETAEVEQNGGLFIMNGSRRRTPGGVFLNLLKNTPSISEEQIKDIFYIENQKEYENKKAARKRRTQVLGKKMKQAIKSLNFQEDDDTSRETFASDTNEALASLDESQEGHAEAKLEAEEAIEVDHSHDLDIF

Assay [3] deals with XPO1 (CRM1) (human (endogenous in 293T and HeLa)) (UniProt O14980). The assay is described as follows: co-IP; antibodies against XPO1, XPO5 and XPOT, soluble extracts of 293T overexpressing RTEL1_(iso6) treated with RNase A (0.1 ug/ul, 30 min, 37°C); NP40 lysis buffer; immunoprecipitates analysed with anti-RTEL1 antibody.
Assay [4] addresses XPO5 (human (endogenous in 293T and HeLa)) (UniProt Q9HAV4). The description is as above.
Assay [5] has as its target T2, XPOT (human (endogenous in 293T and HeLa)) (UniProt O43592).
T2 sequence: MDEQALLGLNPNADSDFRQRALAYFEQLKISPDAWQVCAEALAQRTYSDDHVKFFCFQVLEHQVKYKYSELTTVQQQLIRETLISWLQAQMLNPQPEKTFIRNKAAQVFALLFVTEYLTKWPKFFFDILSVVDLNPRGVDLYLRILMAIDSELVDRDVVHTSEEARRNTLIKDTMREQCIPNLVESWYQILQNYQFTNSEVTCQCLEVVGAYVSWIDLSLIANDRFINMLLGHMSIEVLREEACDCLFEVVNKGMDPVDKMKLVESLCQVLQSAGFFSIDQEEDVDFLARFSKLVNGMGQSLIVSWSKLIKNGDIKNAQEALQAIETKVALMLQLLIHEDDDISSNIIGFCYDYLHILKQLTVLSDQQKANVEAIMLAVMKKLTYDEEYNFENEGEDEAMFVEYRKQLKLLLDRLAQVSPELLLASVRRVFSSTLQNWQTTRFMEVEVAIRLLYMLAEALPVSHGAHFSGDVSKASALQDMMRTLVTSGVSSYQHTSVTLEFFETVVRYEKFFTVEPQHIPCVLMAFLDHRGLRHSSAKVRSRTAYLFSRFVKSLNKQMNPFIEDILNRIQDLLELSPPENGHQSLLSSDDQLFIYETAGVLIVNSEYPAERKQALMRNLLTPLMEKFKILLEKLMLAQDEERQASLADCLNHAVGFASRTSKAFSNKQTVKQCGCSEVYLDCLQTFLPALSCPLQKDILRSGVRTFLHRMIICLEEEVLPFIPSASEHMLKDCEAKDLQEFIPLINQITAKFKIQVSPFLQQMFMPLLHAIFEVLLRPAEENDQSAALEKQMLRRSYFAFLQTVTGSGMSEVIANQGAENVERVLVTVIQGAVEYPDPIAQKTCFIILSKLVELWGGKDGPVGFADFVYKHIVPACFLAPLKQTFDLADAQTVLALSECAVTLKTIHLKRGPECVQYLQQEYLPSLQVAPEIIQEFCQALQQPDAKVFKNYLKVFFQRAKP
The assay is described as above.

Among the data in PMC4330364 are binding values, retold here.

Results are given in words; binding and its absence hold for the method and conditions named. In cells and extracts the contact can be indirect. Some results given as binding are weak or reduced against the parent protein; the word gives no strength.

As for “phosphorylated adaptor for RNA export (PHAX) (from UniProt Q9H814 1-394)”, in assay [1], the binding result is “binds”.
Regarding XPO5 (from UniProt Q9HAV4 1-1204), the binding entry in assay [2] is “binds”.
For “XPO1 (CRM1) (from UniProt O14980 1-1071)”, in assay [2], the binding result was “binds”.

B1: XPOT (protein, UniProt O43592 1-962)
chain: MDEQALLGLNPNADSDFRQRALAYFEQLKISPDAWQVCAEALAQRTYSDDHVKFFCFQVLEHQVKYKYSELTTVQQQLIRETLISWLQAQMLNPQPEKTFIRNKAAQVFALLFVTEYLTKWPKFFFDILSVVDLNPRGVDLYLRILMAIDSELVDRDVVHTSEEARRNTLIKDTMREQCIPNLVESWYQILQNYQFTNSEVTCQCLEVVGAYVSWIDLSLIANDRFINMLLGHMSIEVLREEACDCLFEVVNKGMDPVDKMKLVESLCQVLQSAGFFSIDQEEDVDFLARFSKLVNGMGQSLIVSWSKLIKNGDIKNAQEALQAIETKVALMLQLLIHEDDDISSNIIGFCYDYLHILKQLTVLSDQQKANVEAIMLAVMKKLTYDEEYNFENEGEDEAMFVEYRKQLKLLLDRLAQVSPELLLASVRRVFSSTLQNWQTTRFMEVEVAIRLLYMLAEALPVSHGAHFSGDVSKASALQDMMRTLVTSGVSSYQHTSVTLEFFETVVRYEKFFTVEPQHIPCVLMAFLDHRGLRHSSAKVRSRTAYLFSRFVKSLNKQMNPFIEDILNRIQDLLELSPPENGHQSLLSSDDQLFIYETAGVLIVNSEYPAERKQALMRNLLTPLMEKFKILLEKLMLAQDEERQASLADCLNHAVGFASRTSKAFSNKQTVKQCGCSEVYLDCLQTFLPALSCPLQKDILRSGVRTFLHRMIICLEEEVLPFIPSASEHMLKDCEAKDLQEFIPLINQITAKFKIQVSPFLQQMFMPLLHAIFEVLLRPAEENDQSAALEKQMLRRSYFAFLQTVTGSGMSEVIANQGAENVERVLVTVIQGAVEYPDPIAQKTCFIILSKLVELWGGKDGPVGFADFVYKHIVPACFLAPLKQTFDLADAQTVLALSECAVTLKTIHLKRGPECVQYLQQEYLPSLQVAPEIIQEFCQALQQPDAKVFKNYLKVFFQRAKP
B1: the binding result in assay [2] was “binds”.

B2: Regulator of Telomere ELongation helicase 1 (RTEL1), isoform 6, stably overexpressed in 293T cells (protein, UniProt Q9NZ71-6 1-1300)
chain: MPKIVLNGVTVDFPFQPYKCQQEYMTKVLECLQQKVNGILESPTGTGKTLCLLCTTLAWREHLRDGISARKIAERAQGELFPDRALSSWGNAAAAAGDPIACYTDIPKIIYASRTHSQLTQVINELRNTSYRPKVCVLGSREQLCIHPEVKKQESNHLQIHLCRKKVASRSCHFYNNVEEKSLEQELASPILDIEDLVKSGSKHRVCPYYLSRNLKQQADIIFMPYNYLLDAKSRRAHNIDLKGTVVIFDEAHNVEKMCEESASFDLTPHDLASGLDVIDQVLEEQTKAAQQGEPHPEFSADSPSPGLNMELEDIAKLKMILLRLEGAIDAVELPGDDSGVTKPGSYIFELFAEAQITFQTKGCILDSLDQIIQHLAGRAGVFTNTAGLQKLADIIQIVFSVDPSEGSPGSPAGLGALQSYKVHIHPDAGHRRTAQRSDAWSTTAARKRGKVLSYWCFSPGHSMHELVRQGVRSLILTSGTLAPVSSFALEMQIPFPVCLENPHIIDKHQIWVGVVPRGPDGAQLSSAFDRRFSEECLSSLGKALGNIARVVPYGLLIFFPSYPVMEKSLEFWRARDLARKMEALKPLFVEPRSKGSFSETISAYYARVAAPGSTGATFLAVCRGKASEGLDFSDTNGRGVIVTGLPYPPRMDPRVVLKMQFLDEMKGQGGAGGQFLSGQEWYRQQASRAVNQAIGRVIRHRQDYGAVFLCDHRFAFADARAQLPSWVRPHVRVYDNFGHVIRDVAQFFRVAERTMPAPAPRATAPSVRGEDAVSEAKSPGPFFSTRKAKSLDLHVPSLKQRSSGSPAAGDPESSLCVEYEQEPVPARQRPRGLLAALEHSEQRAGSPGEEQAHSCSTLSLLSEKRPAEEPRGGRKKIRLVSHPEEPVAGAQTDRAKLFMVAVKQELSQANFATFTQALQDYKGSDDFAALAACLGPLFAEDPKKHNLLQGFYQFVRPHHKQQFEEVCIQLTGRGCGYRPEHSIPRRQRAQPVLDPTGRTAPDPKLTVSTAAAQQLDPQEHLNQGRPHLSPRPPPTGDPGSQPQWGSGVPRAGKQGQHAVSAYLADARRALGSAGCSQLLAALTAYKQDDDLDKVLAVLAALTTAKPEDFPLLHRFSMFVRPHHKQRFSQTCTDLTGRPYPGMEPPGPQEERLAVPPVLTHRAPQPGPSRSEKTGKTQSKISSFLRQRPAGTVGAGGEDAGPSQSSGPPHGPAASEWGEPHGRDIAGQQATGAPGGPLSAGCVCQGCGAEDVVPFQCPACDFQRCQACWQRHLQASRMCPACHTASRKQSVMQVFWPEPQ
Consider B2, for which the binding result in assay [3], in assay [4] and in assay [5] was “binds” in each case.
